According to PMC4830539, “Chemical Inhibition of Histone Deacetylases 1 and 2 Induces Fetal Hemoglobin through Activation of GATA2” (PLoS ONE, 2016):

Tested on: gene expression in BM cells
Assay: Gene expression profiling (Affymetrix GeneChip) of erythroid progenitors
Type: cell-based, human
Details: 1 μM, day 5, CS1; absolute fold change greater than 1.5, P-value less than 0.025
Description: BM cells were cultured in CS1 expansion media for 7 days, and then shifted to CS1 differentiation media containing vehicle or 1 μM ACY-957 for 5 days. Total RNA was isolated from cells at day 5 of differentiation using RNeasy Micro Kit with on-column DNase digestion (Qiagen). This experiment was performed in triplicate using cells from three independent donors on separate days to obtain vehicle treated (n = 3) and ACY-957 treated (n = 3) samples for GeneChip analysis. GeneChip sample preparation, hybridization, and data acquisition was performed by the Covance Genomics Laboratory (Seattle, WA) using Affymetrix GeneChip PrimeView™ Human Gene Expression Array according to manufacturer’s protocol. […] For the analysis of HDAC1 or HDAC2 knockdown in erythroblasts, raw gene expression data was downloaded from NCBI GEO website, series GSE22366 [21].
Data analysis was performed using BRB-ArrayTools. GSE60791 and GSE22366 data series were imported and analyzed independently. Raw data CEL files were processed with the robust multi-chip average (RMA) algorithm. Fold changes were derived from the geometric mean of intensity values in each treatment class. In the case of GSE60791, P-values were generated between ACY-957 and vehicle treated samples using a paired t test with random variance model applied. […]

## Nc1ccc(-c2cccs2)cc1NC(=O)c1ccc2nc(N3CCNCC3)ccc2c1 [ACY-957]
  number of genes induced (Up-regulated): 1294
  number of genes suppressed (Down-regulated): 681
